Literature values in US5421897A, “Abatement process for contaminants” (priority 1992, dated 1995).
At least one compound was matched to its structure with a doubt left.

Settings: C.A. 102:144380w; cited from earlier work

In the case of `O=S(=O)(O)CC(S)CS` (stereo not shown) [Unithiol, 2,3-dimercapto-1-propanesulfonate], the “antidotal activity for mercury” value is given as “provides antidotal activity for mercury”.
